Data as given in PMC5344696.
Substitutions are numbered along the chain they refer to. Names may count otherwise. Results are given in words; binding and its absence hold for the method and conditions named. For some assays here: Binding seen in cells or lysates may run through a third protein. Some entries that bind do so weakly or less than the wild type. For some assays here: Where a sequence is shown, tags or fusion partners need not be part of it.

Chains of the proteins cited; added tags and fusions are not shown.
UniProt Q8IY92: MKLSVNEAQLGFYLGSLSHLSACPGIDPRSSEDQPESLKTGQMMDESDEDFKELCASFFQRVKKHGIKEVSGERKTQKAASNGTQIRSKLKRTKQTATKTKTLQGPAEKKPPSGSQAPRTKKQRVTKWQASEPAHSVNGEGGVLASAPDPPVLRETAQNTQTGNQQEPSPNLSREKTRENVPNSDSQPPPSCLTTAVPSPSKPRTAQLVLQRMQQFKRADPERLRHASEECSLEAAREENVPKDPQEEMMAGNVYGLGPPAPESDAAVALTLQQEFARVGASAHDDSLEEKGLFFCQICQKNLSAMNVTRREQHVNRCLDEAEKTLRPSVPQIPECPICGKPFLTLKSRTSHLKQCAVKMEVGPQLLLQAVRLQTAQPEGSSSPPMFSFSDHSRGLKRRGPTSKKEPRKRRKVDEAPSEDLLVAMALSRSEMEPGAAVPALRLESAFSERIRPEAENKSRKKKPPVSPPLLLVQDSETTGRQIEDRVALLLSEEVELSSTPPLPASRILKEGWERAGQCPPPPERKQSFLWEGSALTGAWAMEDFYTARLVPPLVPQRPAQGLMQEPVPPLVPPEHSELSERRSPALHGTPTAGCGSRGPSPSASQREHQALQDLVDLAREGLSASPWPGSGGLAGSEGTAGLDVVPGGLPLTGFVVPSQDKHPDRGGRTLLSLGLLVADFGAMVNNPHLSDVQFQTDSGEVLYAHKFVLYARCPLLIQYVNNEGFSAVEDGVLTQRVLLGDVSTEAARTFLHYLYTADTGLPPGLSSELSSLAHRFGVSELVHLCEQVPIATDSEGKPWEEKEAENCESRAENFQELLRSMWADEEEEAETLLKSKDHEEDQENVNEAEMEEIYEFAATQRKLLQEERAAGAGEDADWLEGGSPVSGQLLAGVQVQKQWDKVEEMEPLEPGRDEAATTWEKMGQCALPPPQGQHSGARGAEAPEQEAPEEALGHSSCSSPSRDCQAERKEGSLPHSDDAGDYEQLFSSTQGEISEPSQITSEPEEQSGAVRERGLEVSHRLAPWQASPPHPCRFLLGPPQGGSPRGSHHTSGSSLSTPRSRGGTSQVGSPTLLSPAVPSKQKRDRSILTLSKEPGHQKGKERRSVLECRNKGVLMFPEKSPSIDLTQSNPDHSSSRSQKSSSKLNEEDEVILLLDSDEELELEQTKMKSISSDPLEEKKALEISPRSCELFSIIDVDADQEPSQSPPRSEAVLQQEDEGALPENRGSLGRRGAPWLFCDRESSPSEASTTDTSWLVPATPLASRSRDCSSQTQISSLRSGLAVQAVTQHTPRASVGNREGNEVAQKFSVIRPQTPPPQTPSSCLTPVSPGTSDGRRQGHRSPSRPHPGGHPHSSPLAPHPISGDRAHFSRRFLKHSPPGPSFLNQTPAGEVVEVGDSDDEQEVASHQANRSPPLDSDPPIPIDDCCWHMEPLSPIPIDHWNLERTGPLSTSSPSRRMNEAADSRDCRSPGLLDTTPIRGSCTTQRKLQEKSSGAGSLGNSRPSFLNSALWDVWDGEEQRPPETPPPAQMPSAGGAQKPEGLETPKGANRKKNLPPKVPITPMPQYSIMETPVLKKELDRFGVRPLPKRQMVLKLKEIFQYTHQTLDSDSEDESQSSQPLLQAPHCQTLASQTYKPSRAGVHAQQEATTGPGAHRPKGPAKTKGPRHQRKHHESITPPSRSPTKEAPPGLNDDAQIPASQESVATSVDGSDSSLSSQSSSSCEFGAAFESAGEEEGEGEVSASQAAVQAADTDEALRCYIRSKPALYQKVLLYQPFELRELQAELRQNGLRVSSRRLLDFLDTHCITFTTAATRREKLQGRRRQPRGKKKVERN

How the values were obtained:
[1] = biological target: _(STREP)SLX4 (human) (UniProt Q8IY92); experiment: three-step affinity co-purification; SMX from Hi5 cells co-infected with SM and XPF-ERCC1 baculoviruses; anti-FLAG M2 agarose, HisTRAP HP, StrepTactin Macroprep; 500 mM NaCl; SDS-PAGE
[2] = biological target: _(STREP)SLX4 (human) (UniProt Q8IY92); experiment: tandem affinity co-purification; SM from Hi5 cells infected with one baculovirus; StrepTactin Superflow, anti-FLAG M2 agarose, HiTRAP SP HP; 500 mM NaCl in the affinity steps
[3] = biological target: T1, _(FLAG)EME1 (human) (UniProt Q96AY2); experiment: affinity co-purification; from Hi5 cells infected with baculovirus; anti-FLAG M2 resin, HiTRAP SP HP, HiTRAP Q HP
T1 sequence: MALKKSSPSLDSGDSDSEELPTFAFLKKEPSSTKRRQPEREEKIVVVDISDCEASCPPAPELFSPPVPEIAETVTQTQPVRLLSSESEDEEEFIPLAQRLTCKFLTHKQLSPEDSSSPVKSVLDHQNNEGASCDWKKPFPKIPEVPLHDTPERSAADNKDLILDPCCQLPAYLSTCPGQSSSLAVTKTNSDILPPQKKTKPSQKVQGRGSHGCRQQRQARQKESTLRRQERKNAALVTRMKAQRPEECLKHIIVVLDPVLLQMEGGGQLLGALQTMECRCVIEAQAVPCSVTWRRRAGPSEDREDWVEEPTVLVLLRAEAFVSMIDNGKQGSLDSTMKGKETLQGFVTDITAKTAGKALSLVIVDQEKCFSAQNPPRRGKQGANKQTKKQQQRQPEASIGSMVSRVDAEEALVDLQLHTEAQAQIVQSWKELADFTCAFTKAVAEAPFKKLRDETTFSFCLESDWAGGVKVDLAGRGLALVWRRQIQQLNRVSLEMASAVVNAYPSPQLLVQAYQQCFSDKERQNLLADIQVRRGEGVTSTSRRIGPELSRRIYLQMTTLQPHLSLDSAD

[4] = biological target: _(FLAG)SLX4 (human) (UniProt Q8IY92); experiment: co-IP + co-sedimentation; _(FLAG)SLX4 precipitated on anti-FLAG M2 agarose from extracts of G2/M-phase cells, eluted with 3x FLAG peptide, then run on a 10%-45% sucrose gradient; fractions blotted
[5] = biological target: _(FLAG)SLX4 (human) (UniProt Q8IY92); experiment: co-sedimentation; 10%-45% sucrose gradients of whole-cell extracts of Flp-In T-REx 293 cells expressing _(FLAG)SLX4, synchronized at G1/S (double thymidine) or G2/M (thymidine, then nocodazole); SG buffer 25 mM Tris-HCl pH 8.0, 150 mM NaCl, 4°C; fractions blotted
[6] = biological target: T2, EME1 (human (endogenous in Flp-In T-REx 293)) (UniProt Q96AY2); experiment: as above
T2 sequence: T1 sequence

[7] = biological target: T1, _(FLAG)EME1 (human); experiment: three-step affinity co-purification; SMX from Hi5 cells co-infected with SM and XPF-ERCC1 baculoviruses; anti-FLAG M2 agarose, HisTRAP HP, StrepTactin Macroprep; 500 mM NaCl; SDS-PAGE
[8] = biological target: T1, _(FLAG)EME1 (human); experiment: tandem affinity co-purification; SM from Hi5 cells infected with one baculovirus; StrepTactin Superflow, anti-FLAG M2 agarose, HiTRAP SP HP; 500 mM NaCl in the affinity steps
[9] = biological target: _(STREP)SLX4 (human) (UniProt Q8IY92); experiment: tandem affinity co-purification; SLX1-SLX4 from Hi5 cells co-infected with V5SLX1_(His6) and _(STREP)SLX4 baculoviruses; StrepTactin Superflow, HisTRAP HP, HiTRAP Q HP; 500 mM NaCl in the affinity steps

Measured: binding

B1: _(FLAG)EME1 (protein, UniProt Q96AY2 1-570)
chain: T1 sequence
binds: [1] | [2]

B2: MUS81 (protein, UniProt Q96NY9 1-551)
chain: MAAPVRLGRKRPLPACPNPLFVRWLTEWRDEATRSRRRTRFVFQKALRSLRRYPLPLRSGKEAKILQHFGDGLCRMLDERLQRHRTSGGDHAPDSPSGENSPAPQGRLAEVQDSSMPVPAQPKAGGSGSYWPARHSGARVILLVLYREHLNPNGHHFLTKEELLQRCAQKSPRVAPGSARPWPALRSLLHRNLVLRTHQPARYSLTPEGLELAQKLAESEGLSLLNVGIGPKEPPGEETAVPGAASAELASEAGVQQQPLELRPGEYRVLLCVDIGETRGGGHRPELLRELQRLHVTHTVRKLHVGDFVWVAQETNPRDPANPGELVLDHIVERKRLDDLCSSIIDGRFREQKFRLKRCGLERRVYLVEEHGSVHNLSLPESTLLQAVTNTQVIDGFFVKRTADIKESAAYLALLTRGLQRLYQGHTLRSRPWGTPGNPESGAMTSPNPLCSLLTFSDFNAGAIKNKAQSVREVFARQLMQVRGVSGEKAAALVDRYSTPASLLAAYDACATPKEQETLLSTIKCGRLQRNLGPALSRTLSQLYCSYGPLT
not listed: [9]
binds: all other assays above

B3: MUS81^D307A (protein, UniProt Q96NY9 1-551)
chain: B2 chain with D307A
binds: [1] | [7] | [2] | [8]

B4: V5SLX1^R41A/E82A (protein, UniProt Q9BQ83 1-275)
chain: MGPAGVAARPGRFFGVYLLYCLNPRYRGRVYVGFTVNTARAVQQHNGGRKKGGAWRTSGRGPWEMVLVVHGFPSSVAALRFAWAWQHPHASRRLAHVGPRLRGETAFAFHLRVLAHMLRAPPWARLPLTLRWVRPDLRQDLCLPPPPHVPLAFGPPPPQAPAPRRRAGPFDDAEPEPDQGDPGACCSLCAQTIQDEEGPLCCPHPGCLLRAHVICLAEEFLQEEPGQLLPLEGQCPCCEKSLLWGDLIWLCQMDTEKEVEDSELEEAHWTDLLET
binds: [1] | [2]

B5: V5SLX1_(His6) (protein, UniProt Q9BQ83 1-275)
chain: B4 chain with A41R, A82E
binds: [9]
